Test results published in PubChem BioAssay AID743255 (National Center for Advancing Translational Sciences (NCATS), 2014).
Among all 390,000 compounds or so, about 910 (0.23%) were called active. Inconclusive results, whose numbers are uncertain, are shown with a selection of clear calls. The call rests on the fitted dose curve; in most records, active means well fitted inhibition curve with a large enough effect; inconclusive means small, poorly fitted or top-dose-only effect; inactive means no such curve, though single readings can be large or run the other way. A potency beside an inconclusive call is a rough fit, not a confirmed value.

Amino acid sequences for entries named in this document (tags omitted). A change or cut given only in a name is not applied to a line headed by its entry.
UniProt O94782: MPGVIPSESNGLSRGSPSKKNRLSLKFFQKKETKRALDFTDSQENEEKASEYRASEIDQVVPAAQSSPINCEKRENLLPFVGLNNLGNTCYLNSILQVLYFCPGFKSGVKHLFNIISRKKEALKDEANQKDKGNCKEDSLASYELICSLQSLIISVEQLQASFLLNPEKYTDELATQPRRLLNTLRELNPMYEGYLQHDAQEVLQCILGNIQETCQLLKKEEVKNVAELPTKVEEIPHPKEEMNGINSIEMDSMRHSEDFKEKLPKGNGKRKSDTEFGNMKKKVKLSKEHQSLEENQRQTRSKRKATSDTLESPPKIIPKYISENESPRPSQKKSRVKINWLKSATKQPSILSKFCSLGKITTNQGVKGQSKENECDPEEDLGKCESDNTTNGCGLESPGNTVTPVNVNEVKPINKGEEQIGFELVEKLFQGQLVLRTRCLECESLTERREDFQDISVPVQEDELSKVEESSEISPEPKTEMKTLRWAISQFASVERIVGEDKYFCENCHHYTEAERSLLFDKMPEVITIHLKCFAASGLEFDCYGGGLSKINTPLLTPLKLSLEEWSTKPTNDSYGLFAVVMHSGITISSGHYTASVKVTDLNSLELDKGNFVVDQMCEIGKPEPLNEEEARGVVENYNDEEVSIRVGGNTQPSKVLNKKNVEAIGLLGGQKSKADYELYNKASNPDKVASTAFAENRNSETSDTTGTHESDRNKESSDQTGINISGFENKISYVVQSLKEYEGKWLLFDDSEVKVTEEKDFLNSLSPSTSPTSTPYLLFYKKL

Each molecule was assayed against Ubiquitin carboxyl-terminal hydrolase 1 (Homo sapiens) (UniProt O94782) (assay: Inhibitors of USP1/UAF1: Primary Screen). Details: recombinant USP1/UAF1, Ub-Rhodamine cleavage fluorescence; activity change, negative = inhibition: at 57.1 µM (top of the series).
Summary of the method: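 1 nM enzyme complex + cpd, 15 min RT; start with Ub-Rho 150nM final; kinetic fluorescence ex 480/em 540, 6 reads q60 s. Buffer 50mM HEPES pH 7.8, 0.5mM EDTA, 0.1 mg/ml BSA, 1mM TCEP, 0.01% Tween-20.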
Further: nearly all actives have a fitted effect of over 60% in size.
On the % scale 0 is the no-effect control and ±100 the full control effect; potency means the concentration at half of the fitted maximal effect.

Structure (SMILES) | Potency | activity change, negative = inhibition
O=C(/C=C/c1ccc(-c2ccccc2[N+](=O)[O-])o1)c1ccccc1 | inconclusive: 39.8 µM [inhibitor, partial curve] | –
O=C(N/N=C/c1ccc(O)c(O)c1)N/N=C/c1ccc(O)c(O)c1 | – | inactive: -12.3%
CC1CCc2nc3ncn(Cc4ccccc4F)c(=O)c3cc2C1 (configuration not stated) | inconclusive: 7.08 µM [inhibitor, single point] | –
Cc1c(NC(=O)c2cccc(NC(=O)c3ccco3)c2)cccc1C(=O)O | inconclusive: 39.8 µM [inhibitor, single point] | –
O=C(CCl)NCCN1C(=O)S/C(=C\c2cccnc2)C1=O | – | inactive: -4.97%
Cn1cc(C(=O)N2CCN(c3cccc(C(F)(F)F)c3)CC2)c2c3ccccc3n(C)c2c1=O | inconclusive: 0.0891 µM [inhibitor, full curve, poor fit] | –
CN(c1ccccc1)S(=O)(=O)c1nnc(NC(=O)c2ccccc2)s1 | – | inactive: -9.96%
CCOC(=O)c1c(-c2ccccc2)csc1NC(=O)c1cc(-c2ccc(F)cc2)on1 | inconclusive: 0.0398 µM [inhibitor, full curve, poor fit] | –
COc1ccc(C(=O)NC(NC(=O)c2ccc(OC)cc2)c2ccccc2F)cc1 | inconclusive: 6.31 µM [inhibitor, single point] | –
CN(C)S(=O)(=O)c1ccc(C(=O)Nc2nc(-c3cccs3)cs2)cc1 | inconclusive: 5.01 µM [inhibitor, partial curve] | –
COc1ccc(NC(=O)Cn2cnc3c(oc4ccccc43)c2=O)cc1OC | inconclusive: 1 µM [inhibitor, full curve] | –
Oc1ccc(C=Nc2cccc3ccccc23)c(O)c1 | inconclusive: 35.5 µM [inhibitor, partial curve] | –
CN(C)CCCNC(=O)c1cc(C(=O)Cc2ccccc2)c[nH]1 | – | inactive: -1.65%
COc1ccc2[nH]c(=O)c(CN(CCc3ccccc3)Cc3nnnn3CC3CCCO3)cc2c1 (configuration not stated) | inconclusive: 28.2 µM [inhibitor, partial curve] | –
COc1ccccc1CNc1ccc(-c2nc(-c3ccco3)no2)cc1[N+](=O)[O-] | – | inactive: -25.5%
CC(C)CCN1C(=O)c2cccc3c(N)ccc(c23)C1=O | inconclusive: 6.31 µM [inhibitor, partial curve, poor fit] | –
C=CCN1C(=O)/C(=C/c2ccc(O)c(OC)c2)S/C1=N/c1nccs1 | inconclusive: 7.08 µM [inhibitor, partial curve] | –
O=C(Cn1nc(-c2ccco2)ccc1=O)Nc1ccc(Cl)c(Cl)c1 | inconclusive: 39.8 µM [inhibitor, single point] | –
CN(C)CCCN(C(=O)c1ccc2c(c1)OCCO2)c1nc2ccccc2s1 | inconclusive: 14.1 µM [inhibitor, partial curve, poor fit] | –
CCOCCCNc1nc2c(C)cccn2c(=O)c1/C=C1\SC(=S)N(CC(C)C)C1=O | inconclusive: 2.82 µM [inhibitor, full curve, poor fit] | –
COC(=O)Cn1c(=O)c2cccn2c2cccnc21 | inconclusive: 0.794 µM [inhibitor, full curve, poor fit] | –

Structure (SMILES) | Potency | activity change, negative = inhibition
COc1cc2c(cc1OC)CN(Cc1cc(=O)oc3cc(C)c(C)cc13)CC2 | inconclusive: 35.5 µM [inhibitor, partial curve] | –
COC(=O)[C@@]12CCCN1[C@H](c1ccc(-c3ccc(Cl)c(Cl)c3)c(OC)c1)[C@H]1C(=O)N(C)C(=O)[C@H]12 | inconclusive: 44.7 µM [inhibitor, partial curve, poor fit] | –
COc1cccc(OCc2nc3ccccc3n2CCOc2ccccc2C)c1 | inconclusive: 44.7 µM [inhibitor, single point] | –
COc1cc([N+](=O)[O-])ccc1-c1ccc(/C=N\n2cnnc2)o1 | – | inactive: -1.49%
Cc1c2ccccc2nc2c(F)c(NC(C)C)c(F)c(F)c12 | inconclusive: 31.6 µM [inhibitor, single point] | –
CCc1cc(C(=O)c2ccccc2OC)c(N)s1 | – | inactive: -1.21%
O=c1c2ccccc2oc2cc(C#CC3(O)CCCCC3)ccc12 | inconclusive: 44.7 µM [inhibitor, partial curve] | –
Cc1cccc(Cc2c(C)nc3nc(SCc4ccccc4C)nn3c2C)c1 | inconclusive: 2.24 µM [inhibitor, partial curve] | –
Cc1nnc(SCCn2c(N3CCN(C)CC3)nc3c2c(=O)[nH]c(=O)n3C)s1 | – | inactive: -18.5%
CC(C(=O)Nc1ccccc1-c1ccccc1)N1CCN(Cc2ccccc2)CC1 (configuration not stated) | – | inactive: -17.7%
CC(C(=O)NCCS(=O)(=O)c1ccc(Br)cc1)S(=O)(=O)c1ccc(Cl)cc1 (configuration not stated) | – | inactive: -31.3%
COCCNC(=O)C1CC(c2ccc([N+](=O)[O-])cc2)=NO1 (configuration not stated) | inconclusive: 39.8 µM [inhibitor, partial curve, poor fit] | –
CCOc1ccc(C(C)=O)cc1COC(=O)c1cc([N+](=O)[O-])ccc1N1CCOCC1 | inconclusive: 15.8 µM [inhibitor, partial curve, poor fit] | –
C=CCOc1ccc(/C=C2\SC(=S)N(C(C(=O)O)c3ccccc3)C2=O)cc1 (configuration not stated) | – | inactive: -21.4%
Fc1ccc(CSc2ncnc3nc[nH]c23)cc1 | inconclusive: 44.7 µM [inhibitor, single point] | –
N#CC1=C(N)Oc2n[nH]c(-c3ccccc3)c2C12C(=O)Nc1ccccc12 (configuration not stated) | – | inactive: -7.24%
CSC1=NSC2=NC(=O)/C(=C\c3coc4ccccc4c3=O)C(=N)N12 | active: 22.4 µM | –
Cc1ccc(S(=O)(=O)N2CCC(C(=O)NCC3CC3)CC2)cc1 | inconclusive: 5.62 µM [inhibitor, partial curve, poor fit] | –
COc1cc(/C=C/C(=O)c2ccc3c(c2)OCO3)cc(Cl)c1O | inconclusive: 31.6 µM [inhibitor, partial curve, poor fit] | –
Cc1cc(C)nc(SCCC(=O)Nc2ccc(F)cc2)n1 | inconclusive: 7.08 µM [inhibitor, single point] | –
Cc1cc(C)cc(OCC(=O)NCC2(N(C)C)CCCCC2)c1 | inconclusive: 0.251 µM [inhibitor, full curve, poor fit] | –

Among those listed so far, 2 contain a COOH group.
Structure (SMILES) | Potency | activity change, negative = inhibition
Cc1c(NC(=O)c2cccc(NC(=O)c3ccco3)c2)cccc1C(=O)O | inconclusive: 39.8 µM [inhibitor, single point] | –
C=CCOc1ccc(/C=C2\SC(=S)N(C(C(=O)O)c3ccccc3)C2=O)cc1 (configuration not stated) | – | inactive: -21.4%
